Results published in publication PMC6456213, “LurR is a regulator of the central lactate oxidation pathway in sulfate-reducing Desulfovibrio species”.
Construct, isoform or probe ends are uncertain for at least one entry. Protein sequences can lack the tags named with them.

Experiments:
[1] = molecular target: T1, LurR (Desulfovibrio vulgaris Hildenborough) (UniProt Q726T3); assay: EMSA; details: 0.5-2.5 pmol LurR; 10 mM Tris-HCl pH 7.5, 50 mM KCl, 5 mM MgCl2, 1 ug/ml poly dI.dC, 100 fmol biotinylated DNA in 20 ul, room temperature, 20 min; recombinant protein; protein details: C-terminal V5 epitope and 6xHis; label: biotin on reverse primer; probe letters rebuilt from the primers and the genome
T1 sequence (looked up, limits assumed): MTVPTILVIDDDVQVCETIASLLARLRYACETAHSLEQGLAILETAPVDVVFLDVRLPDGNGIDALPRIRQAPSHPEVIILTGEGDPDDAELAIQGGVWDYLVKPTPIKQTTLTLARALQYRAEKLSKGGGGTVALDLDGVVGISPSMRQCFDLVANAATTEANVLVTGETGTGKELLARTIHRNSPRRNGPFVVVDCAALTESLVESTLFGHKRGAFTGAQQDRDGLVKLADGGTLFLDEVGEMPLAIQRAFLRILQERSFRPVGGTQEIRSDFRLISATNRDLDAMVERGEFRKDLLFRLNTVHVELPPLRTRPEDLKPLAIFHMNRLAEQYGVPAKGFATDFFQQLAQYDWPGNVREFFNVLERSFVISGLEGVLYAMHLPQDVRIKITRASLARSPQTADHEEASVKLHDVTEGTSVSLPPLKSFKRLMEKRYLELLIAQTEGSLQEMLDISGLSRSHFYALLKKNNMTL

[2] = molecular target: T2, PhoB (Desulfovibrio vulgaris Hildenborough) (UniProt Q72D47); assay: EMSA; details: 125-250 pmol PhoB; 10 mM Tris-HCl pH 7.5, 50 mM KCl, 5 mM MgCl2, 1 ug/ml poly dI.dC, 100 fmol biotinylated DNA in 20 ul, room temperature, 20 min; recombinant protein; protein details: C-terminal V5 epitope and 6xHis; label: biotin on reverse primer; probe letters rebuilt from the primers and the genome
T2 sequence (looked up, limits assumed): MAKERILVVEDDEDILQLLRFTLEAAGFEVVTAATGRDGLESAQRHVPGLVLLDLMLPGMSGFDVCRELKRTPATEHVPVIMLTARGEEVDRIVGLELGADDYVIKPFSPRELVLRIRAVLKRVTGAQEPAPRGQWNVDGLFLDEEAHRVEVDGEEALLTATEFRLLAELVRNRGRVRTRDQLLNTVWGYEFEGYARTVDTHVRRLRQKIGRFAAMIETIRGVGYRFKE

| Sequence | binding result [1] | binding result [2] |
| --- | --- | --- |
| CACTCTGAACCGTGGTCGCACACACCCCATCCGCTTTTTCAGACACGACCCGACACCGCGCCCCTACGTCCACTTTTTCAGACAGCCACCCGGTAGGCCGTTTACCCGCACAATCATGGCATCATCGCCATCTTCGGCGCATTGTCAGTAGGGTAACGCCACACGAAGTCCGCTTTTCAAGACACGCTACCACGCAACCCCATCCACGAGAAACGACAGCCGGAGGAAAAACCAAGGTTACAGCATAGTTACAGATAACACACCATTGGCACATTTCTTGTTAAACTTGCGGAGTTCGCGCTCTCCGCGCAACGGTCTCGGGCTCGCCCGCAAGCACCGTGAACTCCAGCCTCCGGCCCCCGGCGGCATGCCATTTTCACCACGCGCCCACCACAGGGCAGAAAAAGGAGATCGTAAATGGCCAAG (double strand) [por promoter substrate I (426 bp)] | binds | binds |
| CAGACAGCCACCCGGTAGGCCGTTTACCCGCACAATCATGGCATCATCGCCATCTTCGGCGCATTGTCAGTAGGGTAACGCCACACGAAGTCCGCTTTTCAAGACACGCTACCACGCAACCCCATCCACGAGAAACGACAGCCGGAGGAAAAACCAAGGTTACAGCATAGTTACAGATAACACACCATTGGCACATTTCTTGTTAAACTTGCGGAGTTCGCGCTCTCCGCGCAACGGTCTCGGGCTCGCCCGCAAGCACCGTGAACTCCAGCCTCCGGCCCCCGGCGGCATGCCATTTTCACCACGCGCCCACCACAGGGCAGAAAAAGGAGATCGTAAATGGCCAAG (double strand) [por promoter substrate II (348 bp)] | binds | binds |
